# Source: PubChem BioAssay AID445 (National Center for Advancing Translational Sciences (NCATS), 2006)
# This is one part of the list. Further columns of the screen follow, without active or inactive calls. Most of these compounds were active or inconclusive in the main read-out, so they are no random draw. The note in brackets gives the kind of curve behind each potency; many fits are weak.
# Assay: IkB Signaling
# Conditions: ABC-DLBCL IkBa-CBG/CBR dual luciferase ratio (green luciferase fused to IkBa over red control in OCI-Ly3 lymphoma cells), 4 h
# In short: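 Curves were fitted separately to fusion (green), unfused (red) and ratio luminescence, then classed by r2, magnitude and activity. Cells: OCI-Ly3, 4 h compound plus doxycycline at 37C; 10 uM MG-132 defined full response.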
# [1] = measured here: control luc red channel unless noted
smiles,measurement,setting,value
CCCCN(CC)C(=O)CSc1nc2n[nH]c(C)c2c(=N)n1-c1ccc(CC)cc1,AC50,[1],"10 µM [falling, partial curve]"
COc1ccc(NC(=O)CSc2ncc3c(n2)-c2ccccc2N(Cc2ccc(C)cc2)S3(=O)=O)cc1Cl,AC50,[1],"3.16 µM [rising, partial curve]"
Cc1ccc(N(C)C(=O)c2sc3nc4n(c(=O)c3c2C)CCCC4)cc1C,AC50,[1],"15.8 µM [falling, partial curve]"
COCCCn1c(=O)c2sccc2n2c(CCCC(=O)NCc3cccc(OC)c3)nnc12,AC50,[1],"31.6 µM [falling, single point]"
COC(=O)c1ccc(C2C(C#N)=C(C)NC3=C2C(=O)CC(C)(C)C3)cc1 (stereo not drawn),AC50,[1],"3.98 µM [falling, full curve]"
O=C(CSc1ncc(-c2ccccc2)[nH]1)Nc1ccccc1,AC50,[1],"7.94 µM [falling, full curve, poor fit]"
CC(C)(C)c1ccc(C(=O)CCCSC2=C(C#N)C(c3ccco3)C3=C(CCCC3=O)N2)cc1 (stereo not drawn),AC50,[1],"12.6 µM [falling, partial curve]"
Clc1ccc(OCc2nnc(-c3ccccc3Br)o2)cc1,AC50,[1],"39.8 µM [falling, single point]"
CCCCOc1ccc(C(=O)Nc2ccc3c(c2)CCCN3C(=O)c2cccs2)cc1,AC50,[1],"6.31 µM [falling, partial curve]"
O=C(CCC1N=C2c3ccccc3N=C(SCC(=O)Nc3cccc(Cl)c3)N2C1=O)NCc1ccco1 (stereo not drawn),AC50,[1],"10 µM [falling, partial curve, poor fit]"
Cc1cc(C)cc(OCC(=O)Nc2cccc3cccnc23)c1,AC50,[1],"39.8 µM [falling, partial curve]"
CCCc1cnc2c(c1SCC(=O)NCc1ccc(C)cc1)c(=O)n(C)c(=O)n2C,AC50,[1],"20 µM [falling, partial curve, poor fit]"
CCOC(=O)c1ccc(N2C(=O)c3n[nH]c(-c4ccco4)c3C2c2ccc(C(=O)OC)cc2)cc1 (stereo not drawn),AC50,[1],"25.1 µM [falling, single point]"
COc1ccccc1CCNC(=O)Cc1c(C)c2cc(Cl)c(O)cc2oc1=O,AC50,[1],"15.8 µM [falling, partial curve]"
CCCCn1c(NC(=O)c2ccccc2)nc2ccccc21,AC50,[1],"12.6 µM [rising, partial curve] [measured here: IkB-luc green channel]"
CCCCOc1ccccc1C1CC(=O)Nc2ccc3ccccc3c21 (stereo not drawn),AC50,[1],"39.8 µM [falling, single point]"
CCOc1ccc(CNC(=O)c2oc3c(c2C)-c2nn(Cc4cccc(Cl)c4)cc2CC3)cc1,AC50,[1],"12.6 µM [falling, partial curve]"
O=C(Nc1ccc2c(c1)oc1ccccc12)c1ccc2c(c1)OCO2,AC50,[1],"3.16 µM [falling, full curve]"
COc1ccc(C)c2sc(NC(=O)c3ccc(S(=O)(=O)N(C)C)cc3)nc12,AC50,[1],"0.0251 µM [falling, full curve]"
CCc1ccc(NC(=O)CN2C(=O)C(c3ccc(C)cc3)=NC23CCCCC3)cc1,AC50,[1],"10 µM [falling, single point]"
CCCCOc1ccc(C2=NC(c3ccncc3)=Nc3ccc(OCC)cc3N2)cc1,AC50,[1],"20 µM [falling, partial curve]"
COc1ccc2sc(N(Cc3cccnc3)C(=O)C3CCCCC3)nc2c1,AC50,[1],"39.8 µM [falling, single point]"
CCOC(=O)c1cccc(NC(=O)c2cc3ccccn3n2)c1,AC50,[1],"25.1 µM [falling, partial curve]"
CC(C)OCCCn1c(SCC(=O)c2ccccc2)nc2c(sc3ccccc32)c1=O,AC50,[1],"3.16 µM [rising, partial curve, poor fit]"
Cc1cc(C)n2nc(CNS(=O)(=O)c3ccc(C)c(C)c3)nc2n1,AC50,[1],"25.1 µM [falling, single point]"
CCOC(=O)CSc1nnc(CSc2nc(N)c3c(C)c(C)sc3n2)n1-c1ccccc1,AC50,[1],"25.1 µM [falling, partial curve]"
O=C(C1CCN(S(=O)(=O)c2cccc3nonc23)CC1)N1CCN(c2cccc(Cl)c2)CC1,AC50,[1],"15.8 µM [falling, partial curve]"
COc1ccc(NC(=O)CSc2nc3nc(C)c(Cc4ccccc4)c(C)n3n2)cc1OC,AC50,[1],"1 µM [falling, partial curve, poor fit]"
COc1ccccc1N1CCN(C(=O)CSc2nnc(-c3ccoc3C)o2)CC1,AC50,[1],"39.8 µM [falling, single point]"
Cc1ccc(C)c(N2CCN(C(=O)c3cc4c(=O)n(Cc5ccccc5)ccc4nc3C)CC2)c1,AC50,[1],"25.1 µM [falling, single point]"
Cc1ccc2c(c1)N(C(=O)N1CCC(C(=O)NCCc3ccc(Cl)cc3)CC1)CC(C)O2 (stereo not drawn),AC50,[1],"39.8 µM [falling, single point]"
Cc1cccc(OCCCC(=O)Nc2nccs2)c1,AC50,[1],"25.1 µM [falling, single point]"
Cc1cc(F)ccc1S(=O)(=O)Nc1ccccc1C(=O)Nc1ncn[nH]1,AC50,[1],"25.1 µM [falling, partial curve]"
Cc1cccc(NS(=O)(=O)c2ccc3[nH]c4c(c3c2)CCCCCC4)c1,AC50,[1],"25.1 µM [falling, partial curve]"
CCOc1cccc2c1N[C@@H](c1ccc(C(=O)O)cc1)[C@H]1CC=C[C@@H]21,AC50,[1],"39.8 µM [falling, single point]"
Cc1ccc(-n2nc(C)c3c(C)c(CCC(=O)NCc4ccccc4Cl)c(C)nc32)cc1C,AC50,[1],"1.58 µM [falling, full curve, poor fit]"
Cc1cccc(-c2nc(CCNC(=O)Cc3ccccc3)cs2)c1,AC50,[1],"0.1 µM [rising, full curve]"
O=C(COc1ccc(Cl)cc1)Nc1ccc2nc(SCC(=O)N3CCCC3)sc2c1,AC50,[1],"2 µM [falling, partial curve]"
C/C=C(\CS(=O)(=O)c1ccccc1)S(=O)(=O)c1ccccc1,AC50,[1],"7.94 µM [falling, partial curve]"
O=S(=O)(Nc1ccc2c(c1)oc1ccccc12)N1CCCC1,AC50,[1],"20 µM [falling, single point]"
CCOC(=O)c1c(-c2ccccc2)oc2ccc(N(C(C)=O)S(=O)(=O)c3ccc(CC)cc3)cc12,AC50,[1],"5.01 µM [falling, full curve]"
CCOc1ccccc1N(C(=O)c1snc(C(N)=O)c1N)C(C(=O)NC1CCCC1)c1ccco1 (stereo not drawn),AC50,[1],"39.8 µM [falling, single point]"
COc1ccccc1Nc1nc(N)nc(CSCCO)n1,AC50,measured here: IkB-luc green channel,"25.1 µM [rising, single point]"
same,AC50,measured here: control luc red channel,"20 µM [falling, partial curve]"
O=C(COc1ccccc1-c1nc(-c2ccccc2)no1)Nc1cccc([N+](=O)[O-])c1,AC50,[1],"25.1 µM [falling, partial curve]"
Cc1ccc(CCNC(=O)c2cc3c(s2)-c2c(C)cccc2OC3)cc1,AC50,[1],"15.8 µM [falling, partial curve]"
CCOc1ccc(C2CC(c3c(O)n(C4CCCCC4)c(=O)[nH]c3=O)=Nc3ccccc3S2)cc1 (stereo not drawn),AC50,[1],"25.1 µM [falling, single point]"
O=C(Nc1sc2c(c1C(=O)NCc1cccnc1)CCCC2)c1cc(=O)c2ccccc2o1,AC50,[1],"6.31 µM [falling, partial curve]"
Cc1ccc(NS(=O)(=O)c2ccc(-n3cccn3)cc2)cc1Cl,AC50,[1],"7.94 µM [falling, partial curve]"
O=C(Cc1ccc(F)cc1)NCc1ccc2c(c1)CCN2C(=O)c1ccc(F)cc1,AC50,[1],"31.6 µM [falling, single point]"
COc1cccc(-n2c(SCC(=O)Nc3c(C)cc(C)cc3C)nc3c([nH]c4ccccc43)c2=O)c1,AC50,[1],"0.1 µM [falling, full curve, poor fit]"
C=CCn1c(=O)c(C(=O)Nc2ccccc2OC)c(O)c2ccccc21,AC50,[1],"0.251 µM [falling, full curve]"
CCOc1ccc(C(=O)NC2CC(=O)N(c3ccc(C)cc3)C2)cc1OCC (stereo not drawn),AC50,[1],"1 µM [falling, partial curve]"
COc1ccc(NC(=O)CSc2nc3c(c(=O)n2-c2ccc(F)cc2)SCC3)cc1,AC50,[1],"3.98 µM [falling, full curve]"
CC1CCN(S(=O)(=O)c2ccc3c(ccn3CCC(=O)NCc3ccccc3F)c2)CC1,AC50,[1],"31.6 µM [falling, partial curve]"
CCC(C)(C)n1nnnc1C(c1cccs1)N1CCc2ccccc21 (stereo not drawn),AC50,[1],"25.1 µM [falling, partial curve]"
COc1ccc(NC(=O)c2c(-c3ccccc3)c(-c3ccccc3)nn(C)c2=O)cc1OC,AC50,[1],"12.6 µM [falling, partial curve]"
Cc1cccc(-n2ncc3c(Nc4ccc(C)c(Cl)c4)ncnc32)c1,AC50,[1],"12.6 µM [rising, partial curve]"
Cc1ccccc1NC(=O)CCS(=O)(=O)c1cc(Br)cc2c1N(C(=O)C1CC1)CC2,AC50,[1],"10 µM [falling, partial curve]"
Cc1ccccc1CNC(=O)CN1C(=O)C2CCCCN2c2ccc(C(=O)N3CCCC3)cc21 (stereo not drawn),AC50,[1],"31.6 µM [falling, partial curve]"
COC(=O)c1ccc(COc2ccc(C3C4=C(CCCC4=O)Nc4onc(C)c43)cc2)cc1 (stereo not drawn),AC50,[1],"20 µM [falling, single point]"
Cc1ccccc1OCC(=O)Nc1cccc(C(=O)OCc2cc(=O)n3c(C)csc3n2)c1,AC50,[1],"10 µM [falling, partial curve]"
Cc1ccc(S(=O)(=O)Cc2ccc(C(=O)N3CCN(c4cccc(Cl)c4)CC3)o2)cc1,AC50,[1],"25.1 µM [falling, single point]"

# Exported with bars between the fields: part of the list above.
smiles | measurement | setting | value
O=C(C1CCN(S(=O)(=O)c2cccc3nonc23)CC1)N1CCN(c2cccc(Cl)c2)CC1 | AC50 | [1] | 15.8 µM [falling, partial curve]
COc1ccc(NC(=O)CSc2nc3nc(C)c(Cc4ccccc4)c(C)n3n2)cc1OC | AC50 | [1] | 1 µM [falling, partial curve, poor fit]
COc1ccccc1N1CCN(C(=O)CSc2nnc(-c3ccoc3C)o2)CC1 | AC50 | [1] | 39.8 µM [falling, single point]
Cc1ccc(C)c(N2CCN(C(=O)c3cc4c(=O)n(Cc5ccccc5)ccc4nc3C)CC2)c1 | AC50 | [1] | 25.1 µM [falling, single point]
Cc1ccc2c(c1)N(C(=O)N1CCC(C(=O)NCCc3ccc(Cl)cc3)CC1)CC(C)O2 (stereo not drawn) | AC50 | [1] | 39.8 µM [falling, single point]
Cc1cccc(OCCCC(=O)Nc2nccs2)c1 | AC50 | [1] | 25.1 µM [falling, single point]
Cc1cc(F)ccc1S(=O)(=O)Nc1ccccc1C(=O)Nc1ncn[nH]1 | AC50 | [1] | 25.1 µM [falling, partial curve]
Cc1cccc(NS(=O)(=O)c2ccc3[nH]c4c(c3c2)CCCCCC4)c1 | AC50 | [1] | 25.1 µM [falling, partial curve]
CCOc1cccc2c1N[C@@H](c1ccc(C(=O)O)cc1)[C@H]1CC=C[C@@H]21 | AC50 | [1] | 39.8 µM [falling, single point]
Cc1ccc(-n2nc(C)c3c(C)c(CCC(=O)NCc4ccccc4Cl)c(C)nc32)cc1C | AC50 | [1] | 1.58 µM [falling, full curve, poor fit]
Cc1cccc(-c2nc(CCNC(=O)Cc3ccccc3)cs2)c1 | AC50 | [1] | 0.1 µM [rising, full curve]
O=C(COc1ccc(Cl)cc1)Nc1ccc2nc(SCC(=O)N3CCCC3)sc2c1 | AC50 | [1] | 2 µM [falling, partial curve]
C/C=C(\CS(=O)(=O)c1ccccc1)S(=O)(=O)c1ccccc1 | AC50 | [1] | 7.94 µM [falling, partial curve]
O=S(=O)(Nc1ccc2c(c1)oc1ccccc12)N1CCCC1 | AC50 | [1] | 20 µM [falling, single point]
